Source: patent US20150259430A1 (MAB DISCOVERY, published 2015)
Positions count from the first letter of the chain named. These are yes or no findings as the source states them, for the method shown.

B1: Antibody 48 (antibody, V domains shown)
VH: QSLEESGGDLVKPGASLTLTCTASGFDLNSDYWICWVRQAPGKGLEWIACIDTGYGDIYYASWAKGRFTISKTSSTTVTLQMTSLTAADTATYFCAREIIFHFNLWGPGTLVTVSS
VL: DVVMTQTPASVSEPVGGTVTIKCQASQSIRSYLAWYQQKPGQPPKVLIYKASTLASGVSSRFKGSGSGTQFTLTISDLECADAATYYCQGGVELNNYLYNPFGGGTEVVVK
notes: rabbit IgG in B-cell supernatant
B2: Antibody 25 (antibody, V domains shown)
VH: B1 VH with T20I, S30T, D31N, T53S, S62T, T73A
VL: B1 VL with L94F, P101S
notes: as for B1
B3: Antibody 49 (antibody, V domains shown)
VH: B1 VH with D31N
VL: B1 VL with R30S, L94V
notes: as for B1
B4: Antibody 37 (antibody, V domains shown)
VH: B1 VH with K12Q, G14E, A15G, T22K, F26L, L28F, N29S, D31S, I70M, I99K
VL: B1 VL with R30K, S31N, A34S, I48L, L94V
notes: as for B1
B5: Antibody 65 (antibody, V domains shown)
VH: QSVEESGGRLVTPGTPLTLTCTVSGFSLNNYYMTWVRQAPGKGLEWIGVISGSATTYYASWAKGRFTISQTSTTVDLRITSPTTEDTATYFCARSLTADIIDYYNIWGPGTLVTVSL
VL: DVVMTQTPASVSEPVGGTVTIKCQASEDINALLAWYQQKPGQPPKLLIYVASYLQSGVPSRFKGSGSGTEYTLTISGVQCADAATYYCQSAYDSSGYVGAFGGGTEVVVK
notes: as for B1
B6: Antibody 86 (antibody, V domains shown)
VH: QEQLKESGGGLVTPGGTLTLTCTVSGIDLSNYAMVWVRQAPGKGLEWIGIIYTTASTTYANWAKGRFTISKTSTTVDLKITSPTTEDTATYFCVRRSGWDGFDPWGPGTLVTVSS
VL: AQVLTQTPASVSAAVGGTVTINCQASESISSYLNWYQQKPGQPPKRLIYRTSTLASGVPSRFKGSGSGTDFTLTISGVECADAATYYCQQDWSSSDVENVFGGGTEVVVK
notes: as for B1
B7: Antibody 22 (antibody, V domains shown)
VH: QSVEESGGRLVTPGTPLTLTCTVSGFSLSNYGMSWVRQAPGKGLEWIGIITSRSTYYASWAKGRFTISKTSSTTVDLKMTSLTTEDTATYFCGVNNLWGQGTLVTVSS
VL: DPVLTQTPSSVSAAVGGTVTISCQSSQTINNNDLSWFQQKPGQPPKRLIYEASTLTSGVPSRFKGSGSGTQFTLTISDVQCDDAATYYCLGGYYSYGWYFGFGGGTEVVVK
notes: as for B1

Target: recombinant Fc chimeric conjugate of human IL12 Rβ1 (human) (UniProt P42701)
Assay: ELISA, coated antigen

Binder | binding
B1 | no binding (tested: OD 0.1 or lower)
B2 | no binding (tested: OD 0.1 or lower)
B3 | no binding (tested: OD 0.1 or lower)
B4 | no binding (tested: OD 0.1 or lower)
B5 | no binding (tested: OD 0.1 or lower)
B6 | no binding (tested: OD 0.1 or lower)
B7 | no binding (tested: OD 0.1 or lower)
